# Some of these results come from one statement about several compounds together.
# Sequences of proteins named here, by UniProt entry; tags and fusion partners are left off.
# UniProt Q9L5C8, entry or part of it: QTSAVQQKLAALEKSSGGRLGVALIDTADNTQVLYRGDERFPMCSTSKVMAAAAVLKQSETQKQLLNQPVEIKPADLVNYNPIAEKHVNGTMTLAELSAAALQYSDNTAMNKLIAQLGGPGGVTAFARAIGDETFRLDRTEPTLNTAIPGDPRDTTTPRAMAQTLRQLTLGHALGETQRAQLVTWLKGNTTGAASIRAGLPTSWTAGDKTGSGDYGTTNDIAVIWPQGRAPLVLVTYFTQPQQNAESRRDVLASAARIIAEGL
# Target: CTX-M-9 (Escherichia coli, UniProt Q9L5C8)
# From the text: To investigate the effectiveness of the new analogs, we employed CTX-M-9 and a UV-absorbance based biochemical assay to obtain binding affinities. […] The parameter LipE (defined as log Ki-c log P)^24 provides a measure of binding affinity improvement achieved while retaining favorable physiochemical properties.
# The compounds were synthesized as previously described or purchased from the company Chembridge, and assayed without further purification. The highest concentrations at which the compounds were tested were up to 1-3 mM (depending on their solubility) in IC50 experiment. The reaction was initiated by adding protein to the reaction buffer last.
structure (smiles),measurement,value
"O=C(Nc1cccc(-c2nnn[nH]2)c1)c1cc(O)cc(Br)c1 [Compound 20, 3-Bromo-5-hydroxy-N-[3-(1H-tetrazol-5-yl)-phenyl]-benzamide]","potency (Ki) relative to comparator compound, in words",not as potent as 19
